The supplement of paper PMC3334620
In all, about 33,000 sequences were measured (“E-score (-0.5 to 0.5)”: median about -0.016, highest 2% from about 0.3 on). Some of the results follow.

target: T1, Yer184c (UniProt P39961); assay: PBM E-score (8-mer binding enrichment) (E-score (-0.5 to 0.5)); higher = stronger / more preferred TF binding; settings: protein concentration: 100 nM; construct: GST-full length
T1 sequence: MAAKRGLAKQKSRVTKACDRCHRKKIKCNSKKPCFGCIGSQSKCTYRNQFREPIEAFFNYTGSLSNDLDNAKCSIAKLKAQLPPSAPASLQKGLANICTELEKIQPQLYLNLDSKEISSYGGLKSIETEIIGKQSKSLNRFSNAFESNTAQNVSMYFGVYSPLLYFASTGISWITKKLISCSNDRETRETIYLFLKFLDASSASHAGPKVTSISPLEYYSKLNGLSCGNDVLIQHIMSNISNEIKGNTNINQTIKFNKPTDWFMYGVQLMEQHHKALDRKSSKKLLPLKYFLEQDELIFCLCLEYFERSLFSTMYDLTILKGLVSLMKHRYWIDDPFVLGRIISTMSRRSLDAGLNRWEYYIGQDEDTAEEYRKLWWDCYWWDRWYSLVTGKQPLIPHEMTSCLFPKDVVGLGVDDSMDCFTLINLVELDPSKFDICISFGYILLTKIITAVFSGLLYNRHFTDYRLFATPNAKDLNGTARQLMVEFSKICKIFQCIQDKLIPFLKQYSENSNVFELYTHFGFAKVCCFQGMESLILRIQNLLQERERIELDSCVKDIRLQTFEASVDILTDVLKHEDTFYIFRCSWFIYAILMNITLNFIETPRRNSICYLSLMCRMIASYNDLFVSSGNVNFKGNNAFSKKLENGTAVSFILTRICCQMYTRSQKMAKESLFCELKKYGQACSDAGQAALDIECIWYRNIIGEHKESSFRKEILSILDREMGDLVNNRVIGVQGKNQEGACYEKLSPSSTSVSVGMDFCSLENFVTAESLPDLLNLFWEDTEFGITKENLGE
Outline: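 Each ungapped eight-base word and its reverse complement, pooled, received an E-score from the Universal PBM Analysis Suite. Underlying scans, normalised with masliner, recorded fluorescent anti-GST bound to GST-tagged yeast transcription factors. These were applied at about 100-200 nM to universal all-10-mer Agilent arrays double-stranded by primer extension.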

Row | Sequence | PBM E-score
1 | CGACGATA | 0.0675
2 | AAATGCAA | -0.0304
3 | AACGTGGA | -0.176
4 | CTATAGGC | -0.049
5 | CTTGAAAG | 0.0369
6 | CCACCGAG | -0.154
7 | GCGCGAGC | -0.0715
8 | ACACTATG | 0.00249
9 | ACTTGTAT | -0.0115
10 | GGGCAACC | -0.121
11 | AGCTCAAG | -0.145
12 | CCGTCGAA | 0.0885
13 | ACGAGGTA | -0.0467
14 | AAATATTA | 0.206
15 | ATCAATCC | 0.0215
16 | CATATTTC | -0.00731
17 | CCGATTGC | 0.18
18 | CGTTCCCA | -0.157
19 | CAACAATG | 0.102
20 | CCCCATAG | -0.102
21 | GTGGACAC | -0.146
22 | ATAGTCCA | -0.0529
23 | AGCATCAG | -0.131
24 | CTGAGTTC | -0.0142
25 | GGGGTGAC | -0.225

Row | Sequence | PBM E-score
26 | CTCACTCC | 0.012
27 | GCACGCGA | 0.00413
28 | CTAAGTCC | -0.206
29 | CCGCAAAC | 0.144
30 | TACCCAAA | -0.0411
31 | CTGGCCGC | -0.117
32 | CTCAGTAA | -0.0129
33 | GAATAAGA | 0.00594
34 | CTTGGTGA | -0.0525
35 | AATTAAGC | 0.207
36 | CCTGAGTA | -0.0972
37 | AAATGCTG | 0.0174
38 | AGCGATGG | -0.207
39 | CATTTCGA | 0.019
40 | CTGGAATC | -0.192
41 | GAGCGGGA | -0.0463
42 | TCATTGAA | -0.00041
43 | GGGCACAC | -0.198
44 | CACAGGCC | -0.148
45 | CCGGAAGG | 0.28
46 | AACTATGC | 0.154
47 | CTTTAACC | -0.0345
48 | AAGCCAAA | 0.0744
49 | ACGTTGAG | -0.055
50 | CATAGCCC | -0.362

Fetched one by one from the list above (5):
Row | Sequence | PBM E-score
43 | GGGCACAC | -0.198
44 | CACAGGCC | -0.148
8 | ACACTATG | 0.00249
20 | CCCCATAG | -0.102
14 | AAATATTA | 0.206

(continued)

Row | Sequence | PBM E-score
51 | ATAAACTG | 0.153
52 | TAGAATAA | 0.128
53 | AAATTATA | 0.205
54 | CATCTGGC | -0.0761
55 | AACCGTCG | 0.176
56 | CCTATGCG | -0.148
57 | ATCCCGCA | -0.0732
58 | CATCGTGC | -0.0117
59 | AAAAGCGA | 0.0954
60 | GTCCTTGA | -0.00188
61 | CGCAGAGC | -0.142
62 | CTAACTGC | -0.207
63 | AACCCCCC | -0.46
64 | ATGCCCCC | -0.376
65 | GCATCTTA | -0.0252
66 | ACCCTTTA | -0.142
67 | CAATATCG | 0.0115
68 | ACGGCAAA | 0.211
69 | AGCCCCCC | -0.403
70 | GCTTAGGA | -0.113
71 | ATTATAAG | 0.135
72 | CCATTACA | 0.107
73 | CGGAGCCA | 0.0508
74 | GAGGGCAC | -0.271
75 | CCAATTAC | -0.0446

Row | Sequence | PBM E-score
76 | GACCACAA | -0.032
77 | GTCGCTGA | 0.015
78 | AATGGTAG | -0.00899
79 | GTACTAAC | 0.0717
80 | CATCAAGG | -0.171
81 | ACATACAG | -0.0958
82 | GAGACTAC | -0.124
83 | AAGACTGA | -0.0764
84 | CCGAAAAC | 0.243
85 | ACCTACAG | -0.0545
86 | CTCCGTGA | 0.208
87 | ATTTGTGC | 0.0351
88 | CCACCTGG | -0.342
89 | ATGTTTCG | 0.173
90 | CGTGGTAA | -0.146
91 | ATCCACCG | 0.136
92 | CCCTTGAA | -0.0291
93 | ACCGCTAT | 0.0175
94 | TAAGGAGA | -0.0969
95 | ACAATTAC | 0.045
96 | TCTAAGAA | 0.252
97 | ACTCGTAG | -0.126
98 | AGACCGCG | 0.11
99 | AACCCCTA | -0.319
100 | GCCAGCGC | -0.129

Part of the list above, comma-delimited.
Row,Sequence,PBM E-score
56,CCTATGCG,-0.148
57,ATCCCGCA,-0.0732
58,CATCGTGC,-0.0117
59,AAAAGCGA,0.0954
60,GTCCTTGA,-0.00188
61,CGCAGAGC,-0.142
62,CTAACTGC,-0.207
63,AACCCCCC,-0.46
64,ATGCCCCC,-0.376
65,GCATCTTA,-0.0252
66,ACCCTTTA,-0.142
67,CAATATCG,0.0115
68,ACGGCAAA,0.211
69,AGCCCCCC,-0.403
70,GCTTAGGA,-0.113
71,ATTATAAG,0.135
72,CCATTACA,0.107
73,CGGAGCCA,0.0508
74,GAGGGCAC,-0.271
75,CCAATTAC,-0.0446
76,GACCACAA,-0.032
77,GTCGCTGA,0.015
78,AATGGTAG,-0.00899
79,GTACTAAC,0.0717
80,CATCAAGG,-0.171
81,ACATACAG,-0.0958
82,GAGACTAC,-0.124
83,AAGACTGA,-0.0764
84,CCGAAAAC,0.243
85,ACCTACAG,-0.0545
86,CTCCGTGA,0.208
87,ATTTGTGC,0.0351
88,CCACCTGG,-0.342
89,ATGTTTCG,0.173
90,CGTGGTAA,-0.146
91,ATCCACCG,0.136
92,CCCTTGAA,-0.0291
93,ACCGCTAT,0.0175
94,TAAGGAGA,-0.0969
95,ACAATTAC,0.045
96,TCTAAGAA,0.252
97,ACTCGTAG,-0.126
98,AGACCGCG,0.11
99,AACCCCTA,-0.319
100,GCCAGCGC,-0.129

Remaining list, next part:

Row | Sequence | PBM E-score
101 | AGAGATAG | 0.133
102 | GCCGGGCA | 0.275
103 | ATACTTGA | -0.234
104 | ACTTTGGG | -0.109
105 | AAGGTACG | -0.127
106 | GTGAATGA | 0.0235
107 | CAGACTGC | -0.249
108 | AGAGCCTG | -0.167
109 | GCAATGCA | -0.168
110 | ACTGGTTG | 0.0412
111 | GAAAATGC | 0.114
112 | AGTCAGAC | -0.0721
113 | ATCAACGG | 0.24
114 | CCTATCAG | -0.233
115 | CAGATACC | -0.2
116 | AGCCGATC | 0.169
117 | AATGAATG | 0.0587
118 | AGACTCAA | -0.0139
119 | CTAAAACA | 0.0593
120 | CCTCGGTC | -0.0163
121 | CTTAGAAC | 0.107
122 | CATTAGAG | -0.165
123 | CATCCGGA | 0.375
124 | ACCCACCA | -0.19
125 | ATGTCGAA | 0.0448

Row | Sequence | PBM E-score
126 | GGGGCGGA | 0.0132
127 | TACACTCA | 0.0322
128 | AATTAAAA | 0.202
129 | CATACACA | -0.147
130 | ATTCCCGA | 0.162
131 | ACGTTTAC | -0.0732
132 | TGTTTTAA | 0.327
133 | CGAATGGA | -0.0229
134 | GGTTCTAA | 0.0214
135 | CATTACAC | -0.105
136 | CGATATGC | 0.0158
137 | CCTCTTTC | -0.0159
138 | GTCCACCA | -0.171
139 | CAGTTTGG | -0.0756
140 | GCGTGAGC | 0.104
141 | AGTAGTCC | -0.0872
142 | AATTCTTC | 0.157
143 | CTCTAGTA | -0.00732
144 | ACCACGAT | -0.0131
145 | GCTCGTGA | -0.201
146 | CTCTAACA | 0.0218
147 | AAGTGGCG | -0.0663
148 | CATTCTGG | -0.113
149 | CTGAAGGA | -0.0811
150 | ATTAGCAA | 0.223

Row | Sequence | PBM E-score
151 | ACCGCCGC | 0.175
152 | AAAGGTTA | -0.0402
153 | ACCGCGTC | 0.00355
154 | TATCGTAA | 0.072
155 | AAAAGCAG | -0.144
156 | GGTGATAC | -0.11
157 | GCATGGCA | 0.0641
158 | CACCGCAC | -0.179
159 | GCGAAACC | 0.0965
160 | ACGGGTAA | 0.00866
161 | CAGCTTGG | 0.0813
162 | AGGCCCAT | -0.226
163 | GAGGCCCC | -0.213
164 | CTAACCTC | -0.0675
165 | GCGCCCAA | 0.00965
166 | TCTATAGA | -0.137
167 | AAAGGAAC | 0.0885
168 | CCGAGAGC | -0.00325
169 | AGTCTCAC | -0.0985
170 | CATGAACG | -0.155
171 | GGGGGCGA | -0.264
172 | CTGCGTAC | -0.166
